Patent US11220671B2, “Methods for the maturation of cardiomyocytes on amniotic fluid cell-derived ECM, cellular constructs, and uses for cardiotoxicity and proarrhythmic screening of drug compounds” (STEMBIOSYS, INC., priority 2019, dated 2022)

System: mature cardiomyocytes (hiPSC-CMs) on AFC-ECM
Protocol: The cardiotoxicity and/or proarrhythmia testing can be conducted using any type of equipment suitable for measuring such activity. In some embodiments, the cellular constructs of monolayers of mature cardiomyocytes on AFC-ECM are prepared as described supra. After the maturation process (generally 7 days or less), the electrophysiology of each well is observed using a plate reader. A suitable voltage sensitive or calcium sensitive fluorescent dye is loaded into each well. Non-limiting voltage sensitive dyes include FluoVolt™ dye commercially available from ThermoFisher. In some embodiments, the plate reader can rely on a suitable high spatiotemporal CCD camera combined with suitable lighting, such as light emitting diodes (LEDs), of the appropriate wavelength to excite each dye. Such high spatiotemporal CCD cameras are commercially available from SciMeasure. […] Each plate is centered under the camera system, lighting is switched on and camera acquisition is initiated and electrophysiological activity is recorded. […] After baseline readings are made, the drug to be tested is added to the wells and the effects are recorded. Spontaneous activity is recorded for a sufficient period of time to obtain images, e.g. at least 10 seconds. […] Images are analyzed and action potential duration, conduction velocity, beat rate and activation patterns can be quantified using image analysis software. […]

## COC(=O)C1=C(C)NC(C)=C(C(=O)OC)C1c1ccccc1[N+](=O)[O-] [Nifedipine]
  APD90 Prolongation? @10X ETPC: No,
  Arrhythmia Detected?: Yes, Q
